Reference: patent publication US8536148B2, “Disabling autophagy as a treatment for lysosomal storage diseases” (The United States of America, as Represented by the …, priority 2009, dated 2013)
At least one structure is not confirmed: it was looked up by name or label, or the drawing left a doubt.

Assays:
autophagy [1] = experiment: Induction of autophagy by rapamycin in WT skeletal muscle; assay type: in vivo, mouse
autophagy [2] = experiment: Induction of autophagy by rapamycin in muscle from GAA−/− mice (LC3-II); assay type: in vivo, mouse

CO[C@H]1C[C@@H]2CC[C@@H](C)[C@@](O)(O2)C(=O)C(=O)N2CCCC[C@H]2C(=O)O[C@H]([C@H](C)C[C@@H]2CC[C@@H](O)[C@H](OC)C2)CC(=O)[C@H](C)/C=C(\C)[C@@H](O)[C@@H](OC)C(=O)[C@H](C)C[C@H](C)/C=C/C=C/C=C/1C [Rapamycin]
Induction of autophagy (autophagy [1]): does not induce autophagy | LC3-II (autophagy [2]): no increase in LC3-II was detected
